Assay results published in paper PMC9120013, “Ribosome inhibition by C9ORF72-ALS/FTD-associated poly-PR and poly-GR proteins revealed by cryo-EM” (Nature Communications, 2022).
Ends that are not written are not given here.

Tested on: rabbit 80S ribosomes
Assay: Cryo-EM maximum-likelihood classification of rabbit 80S complexes
Assay type: binding, Oryctolagus cuniculus
Details: for percentage of ribosomes: Non-rotated, weak P/P tRNA / percentage of ribosomes: Rotated, P/E-tRNA / percentage of ribosomes: Non-rotated, P/P tRNA: 5 µM DPR; for percentage of ribosomes: Non-rotated, weak P/P tRNA: buffer 0.0; for percentage of ribosomes: Rotated, P/E-tRNA: buffer 12.3; for percentage of ribosomes: Non-rotated, P/P tRNA: buffer 80.9; for increase of ribosomes in the rotated state with P/E tRNA: versus buffer control

N=C(N)NCCC[C@H](NC(=O)CNC(=O)[C@H](CCCNC(=N)N)NC(=O)CNC(=O)[C@H](CCCNC(=N)N)NC(=O)CNC(=O)[C@H](CCCNC(=N)N)NC(=O)CNC(=O)[C@H](CCCNC(=N)N)NC(=O)CNC(=O)[C@H](CCCNC(=N)N)NC(=O)CNC(=O)[C@H](CCCNC(=N)N)NC(=O)CNC(=O)[C@H](CCCNC(=N)N)NC(=O)CNC(=O)[C@H](CCCNC(=N)N)NC(=O)CNC(=O)[C@H](CCCNC(=N)N)NC(=O)CNC(=O)[C@H](CCCNC(=N)N)NC(=O)CNC(=O)[C@H](CCCNC(=N)N)NC(=O)CNC(=O)[C@H](CCCNC(=N)N)NC(=O)CNC(=O)[C@H](CCCNC(=N)N)NC(=O)CNC(=O)[C@H](CCCNC(=N)N)NC(=O)CNC(=O)[C@H](CCCNC(=N)N)NC(=O)CNC(=O)[C@H](CCCNC(=N)N)NC(=O)CNC(=O)[C@H](CCCNC(=N)N)NC(=O)CNC(=O)[C@H](CCCNC(=N)N)NC(=O)CNC(=O)[C@H](CCCNC(=N)N)NC(=O)CN)C(=O)O [GR20]
percentage of ribosomes: Non-rotated, weak P/P tRNA: 22.1% | percentage of ribosomes: Rotated, P/E-tRNA: 18.9% | percentage of ribosomes: Non-rotated, P/P tRNA: 52.1% | increase of ribosomes in the rotated state with P/E tRNA: 1.5 fold

PRPRPRPRPRPRPRPRPRPRPRPRPRPRPRPRPRPRPRPR [PR20]
percentage of ribosomes: Non-rotated, weak P/P tRNA: 0.0% | percentage of ribosomes: Rotated, P/E-tRNA: 25.0% | percentage of ribosomes: Non-rotated, P/P tRNA: 66.4% | increase of ribosomes in the rotated state with P/E tRNA: 2 fold
